The results in this text go back to the supplement of paper PMC8256030.

Each structure is given as a SMILES string. Counter-ions that a name gives are not always drawn. This is one part of the list. Single values are uncertain here, since repeats match poorly.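 HEK293T cells were given each compound shortly before transfection with a reporter in which red mCherry is followed by the SARS-CoV-2 frameshift element and then GFP in the −1 frame, so GFP appears only after frameshifting.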

In the assay the test system is HEK293T. Description: percent viability (nuclei count) relative to control; higher = more viable cells. As to conditions: 10 µM; 24 h.
As to `Oc1ccc(Cl)cc1Sc1cc(Cl)ccc1O` [fenticlor], the percent viability turned out to be 200%. Under `CC(C)(C)[C@]1(O)CCN2C[C@H]3c4ccccc4CCc4cccc(c43)[C@@H]2C1` [butaclamol] stands 136%; under `O=C(O)Cn1c(C(=O)Nc2nc(-c3ccccc3Cl)cs2)cc2ccccc21` [lintitript], 104%. As to `N[C@@H](CC(=O)N1CCn2c(nnc2C(F)(F)F)C1)Cc1cc(F)c(F)cc1F` [sitagliptin], the percent viability is 217%. As to `O=C(C[S+]([O-])Cc1ccco1)NC/C=C\COc1cc(CN2CCCCC2)ccn1` (stereo not given) [lafutidine], the percent viability worked out at 208%. In the case of `N#C[C@@H]1CCCN1C(=O)CNC12CC3CC(CC(O)(C3)C1)C2` [vildagliptin], the percent viability turned out to be 145%. For `CN1C(CCl)Nc2cc(Cl)c(S(N)(=O)=O)cc2S1(=O)=O` (stereo not given) [methyclothiazide], the percent viability was 152%. The result for `CSc1ccc(OCc2ncc([N+](=O)[O-])n2C)cc1` [fexinidazole] reads 195%.

Take `COC[C@@H](c1ccc(C(F)(F)F)cc1)N1CCN(C2(C)CCN(C(=O)c3c(C)ncnc3C)CC2)C[C@@H]1C` [vicriviroc]: the percent viability is 278%. `O=C(O)CCCCCCCNC(=O)c1ccccc1O` [salcaprozic acid]: the percent viability worked out at 326%. Turning to `N[C@@H]1CCCC[C@H]1N.O=C([O-])C(=O)[O-].[Pt+2]`, the percent viability amounted to 172%. Under `CC(=O)N[C@@H](CC(=O)N[C@@H](CCC(=O)O)C(=O)O)C(=O)O` [Spaglumic Acid] stands 54.5%; under `C=CCc1ccc(O)c(OC)c1`, 117%. For `C=C1CC[C@H](O)C/C1=C/C=C1\CCC[C@]2(C)[C@@H]([C@H](C)/C=C/[C@H](C)C(C)C)CC[C@@H]12`, the percent viability is 133%. The result for `NCCCC[C@H](NC(=O)[C@@H](Cc1cc(Br)c(O)c(Br)c1)NC(=O)N1CCC(N2Cc3ccccc3NC2=O)CC1)C(=O)N1CCN(c2ccncc2)CC1` [olcegepant] reads 202%; that for `CCN1CCN(C(=O)N[C@@H](C(=O)N[C@@H]2C(=O)N3[C@@H]2SC(C)(C)[C@@H]3C(=O)O)c2ccccc2)C(=O)C1=O` [Piperacillin], 186%.

For the compound `CN1CCN(C2=Nc3cc(F)ccc3Cc3ccccc32)CC1` [fluperlapine], the percent viability was found to be 278%. The result for `S=C=Nc1ccc(N=C=S)cc1` [bitoscanate] reads 254%; that for `N#Cc1ccc(C2CCCc3cncn32)cc1` (stereo not given) [fadrozole], 216%; that for `c1ccc(Cn2c(N3CCNCC3)nc3ccccc32)cc1` [lerisetron], 164%.

As to `CC(C)=CCC/C(C)=C/CC/C(C)=C/CCC(=O)OC/C=C(\C)CCC=C(C)C` [gefarnate], the percent viability was 160%.

Consider `CC1(C)[C@H](C(=O)O)N2C(=O)C[C@H]2S1(=O)=O` [Sulbactam], for which the percent viability turned out to be 211%. The result for `CN[C@@H]1[C@H](O)[C@H](NC)[C@H]2O[C@@]3(O)C(=O)C[C@@H](C)O[C@H]3O[C@@H]2[C@H]1O` [Spectinomycin·2HCl] reads 139%. The result for `Cc1ccnc(NC(=O)C(C)c2cccc(C(=O)c3ccccc3)c2)c1` (stereo not given) [piketoprofen] reads 192%; that for `CS(=O)(=O)CCNCc1ccc(-c2ccc3ncnc(Nc4ccc(OCc5cccc(F)c5)c(Cl)c4)c3c2)o1` [lapatinib], 236%.

`CC(=O)Nc1ncc([N+](=O)[O-])s1` [aminitrozole]: the percent viability came out at 324%. The result for `CC(C(O)c1ccc(O)cc1)N1CCC(Cc2ccccc2)CC1` (stereo not given) [Ifenprodil tartrate] reads 142%; that for `NCC1CC(=O)N(Cc2ccccc2)C1` (stereo not given) [nebracetam], 306%.

As for `CNC(=O)OCc1cccc(COC(=O)NC)n1` [pyricarbate], the percent viability was 170%. Under `CNC1CCCN(c2c(F)cc3c(=O)c(C(=O)O)cn(C4CC4)c3c2OC)C1` (stereo not given) [balofloxacin] stands 175%; under `CC(C)=CCNc1ncnc2c1ncn2[C@@H]1O[C@H](CO)[C@@H](O)[C@H]1O` [riboprine], 149%.

On to `CN[C@@H]1[C@H](O[C@H]2[C@H](O[C@H]3[C@H](O)[C@@H](O)[C@H](N=C(N)N)[C@@H](O)[C@@H]3N=C(N)N)O[C@@H](C)[C@]2(O)CO)O[C@@H](CO)[C@H](O)[C@H]1O`, for which the percent viability is 201%. The result for `CC(C)OC(=O)C(C(=O)OC(C)C)=C1SC=CS1` [malotilate] reads 260%. Under `COc1ccccc1OCC(O)COC(N)=O` (stereo not given) [methocarbamol] stands 265%; under `CC12CCC(CC1)C(C)(C)O2`, 145%; under `CS(=O)(=O)OCCCCOS(C)(=O)=O` [busulfan], 352%. In the case of `O=C(O)c1cc(O)c(O)c(O)c1`, the percent viability is 310%. On to `OC(CCN1CCCCC1)(c1ccccc1)C1CCCCC1` (stereo not given) [trihexyphenidyl], for which the percent viability turned out to be 115%.

`CC(=O)N[C@@H](C=O)[C@@H](O)[C@H](O)[C@H](O)CO`: the percent viability came out at 175%. The result for `Cc1c2oc3c(C)ccc(C(=O)N[C@@H]4C(=O)N[C@H](C(C)C)C(=O)N5CCC[C@H]5C(=O)N(C)CC(=O)N(C)[C@@H](C(C)C)C(=O)O[C@@H]4C)c3nc-2c(C(=O)N[C@@H]2C(=O)N[C@H](C(C)C)C(=O)N3CCC[C@H]3C(=O)N(C)CC(=O)N(C)[C@@H](C(C)C)C(=O)O[C@@H]2C)c(N)c1=O` reads 40.2%.
